Measured values reported in the supplement of paper PMC3334620.
In all, about 33,000 sequences were measured (“E-score (-0.5 to 0.5)”: median about -0.015, highest 2% from about 0.3 on). This is one part of the list.

target: T1, Abf1 (UniProt P14164); assay: PBM E-score (8-mer binding enrichment) (E-score (-0.5 to 0.5)); higher = stronger / more preferred TF binding; settings: protein concentration: 200 nM; construct: GST-full length
T1 sequence: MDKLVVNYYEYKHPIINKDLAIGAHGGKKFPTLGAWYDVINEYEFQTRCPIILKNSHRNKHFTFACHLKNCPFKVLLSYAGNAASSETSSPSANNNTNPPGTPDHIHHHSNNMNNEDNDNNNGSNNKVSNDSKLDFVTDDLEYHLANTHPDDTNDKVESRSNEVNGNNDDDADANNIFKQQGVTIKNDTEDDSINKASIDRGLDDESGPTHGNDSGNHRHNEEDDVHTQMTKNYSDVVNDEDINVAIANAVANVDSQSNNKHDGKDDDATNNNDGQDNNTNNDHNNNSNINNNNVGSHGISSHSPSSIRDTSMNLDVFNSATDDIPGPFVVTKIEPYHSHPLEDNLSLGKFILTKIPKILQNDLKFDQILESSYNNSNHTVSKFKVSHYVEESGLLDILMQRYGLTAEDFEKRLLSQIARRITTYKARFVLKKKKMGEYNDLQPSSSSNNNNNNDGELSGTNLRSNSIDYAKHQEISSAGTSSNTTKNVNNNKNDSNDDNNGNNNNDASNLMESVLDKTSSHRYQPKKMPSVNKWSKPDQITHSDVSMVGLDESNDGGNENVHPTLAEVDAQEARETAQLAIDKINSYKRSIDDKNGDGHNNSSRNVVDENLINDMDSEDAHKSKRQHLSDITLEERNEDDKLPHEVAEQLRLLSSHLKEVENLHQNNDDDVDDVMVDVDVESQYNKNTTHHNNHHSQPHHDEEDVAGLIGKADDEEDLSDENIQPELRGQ
In short: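 Universal all-10-mer Agilent arrays, double-stranded by primer extension on fresh or once-stripped slides, were probed with about 100-200 nM GST-tagged yeast transcription factors made by PURExpress. Fluorescent anti-GST detected bound protein, and masliner normalised the scans. E-scores from the Universal PBM Analysis Suite were given to each ungapped eight-base word pooled with its reverse complement.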

Q: Which “PBM E-score” value does the source give for ATACTAGG here?
A: -0.161

Q: How did the “PBM E-score” value turn out when ACCAGCGT was run?
A: -0.275

Q: With CCCAATCG as the sequence, how does the “PBM E-score” value read?
A: -0.13

Q: GATGATAA was tested. Which “PBM E-score” value did it give?
A: 0.36

Q: How did the “PBM E-score” value turn out when AACTGAGA was run?
A: 0.0232

Q: Which “PBM E-score” value does the source give for ATTCAAGG here?
A: -0.14

Q: Which “PBM E-score” value does the source give for GGGCAACA here?
A: -0.173

Q: How did the “PBM E-score” value turn out when CACAAGCA was run?
A: -0.0969

Q: Which “PBM E-score” value does the source give for AGAAGTTA here?
A: 0.0198

Q: For AGGCCCGG, which “PBM E-score” value is on record?
A: -0.332

Q: For CCCCCGAG, which “PBM E-score” value is on record?
A: -0.245

Q: How did the “PBM E-score” value turn out when AGCGTACA was run?
A: -0.121

Q: With ATCATGGG as the sequence, how does the “PBM E-score” value read?
A: 0.00172

Q: Which “PBM E-score” value does the source give for ACAAGGCC here?
A: -0.152

Q: For CTTATACA, which “PBM E-score” value is on record?
A: -0.11

Q: AGCTGGAT was tested. Which “PBM E-score” value did it give?
A: -0.18

Q: With CTGATTTA as the sequence, how does the “PBM E-score” value read?
A: 0.0199

Q: For GGTAAGAC, which “PBM E-score” value is on record?
A: -0.0807

Q: With CTCAAATA as the sequence, how does the “PBM E-score” value read?
A: 0.00821

Q: With GAGTGTAC as the sequence, how does the “PBM E-score” value read?
A: -0.0427

Q: GTAGCACA was tested. Which “PBM E-score” value did it give?
A: -0.0223

Q: How did the “PBM E-score” value turn out when AAACTGGT was run?
A: -0.0367

Q: How did the “PBM E-score” value turn out when CCTTGAAC was run?
A: -0.0179

Q: Which “PBM E-score” value does the source give for GACACTGA here?
A: -0.0199

Q: How did the “PBM E-score” value turn out when ACCAATCC was run?
A: -0.101

Q: For CGGACGGA, which “PBM E-score” value is on record?
A: -0.0286

Q: With GGGGTTAA as the sequence, how does the “PBM E-score” value read?
A: -0.177

Q: With CACGTCCG as the sequence, how does the “PBM E-score” value read?
A: 0.00841

Q: Which “PBM E-score” value does the source give for AGAGTTTA here?
A: -0.0329

Q: With AGAGACAT as the sequence, how does the “PBM E-score” value read?
A: 0.075

Q: Which “PBM E-score” value does the source give for AGTGACGA here?
A: 0.422

Q: For ACAATTAG, which “PBM E-score” value is on record?
A: -0.137

Q: For CCCGCACC, which “PBM E-score” value is on record?
A: -0.3

Q: For GATCATCC, which “PBM E-score” value is on record?
A: 0.197

Q: Which “PBM E-score” value does the source give for ATGTTCCG here?
A: -0.0196

Q: How did the “PBM E-score” value turn out when AACCGGAT was run?
A: 0.0336

Q: For ACCTCCAG, which “PBM E-score” value is on record?
A: -0.15

Q: How did the “PBM E-score” value turn out when CGACAGGC was run?
A: -0.13

Q: ACGGGTAG was tested. Which “PBM E-score” value did it give?
A: -0.098

Q: How did the “PBM E-score” value turn out when GCCATGAC was run?
A: 0.137

Q: For GTAATTCA, which “PBM E-score” value is on record?
A: 0.0756

Q: For ATGTACGA, which “PBM E-score” value is on record?
A: 0.444

Q: For CAGGAACG, which “PBM E-score” value is on record?
A: -0.0728

Q: With AAAAGCGT as the sequence, how does the “PBM E-score” value read?
A: -0.104

Q: How did the “PBM E-score” value turn out when AAGCTATC was run?
A: 0.167

Q: ATCAGTGC was tested. Which “PBM E-score” value did it give?
A: -0.0556

Q: CTGAGAGA was tested. Which “PBM E-score” value did it give?
A: -0.0645

Q: For ATGAAGTG, which “PBM E-score” value is on record?
A: 0.00194

Q: How did the “PBM E-score” value turn out when GTAACCGA was run?
A: -0.112

Q: With AGCGTAAA as the sequence, how does the “PBM E-score” value read?
A: -0.105

Q: How did the “PBM E-score” value turn out when CAAAAATC was run?
A: -0.091

Q: With ATGCTAAA as the sequence, how does the “PBM E-score” value read?
A: 0.0969

Q: AACACGCG was tested. Which “PBM E-score” value did it give?
A: -0.00618

Q: CATCTTGC was tested. Which “PBM E-score” value did it give?
A: 0.104

Q: Which “PBM E-score” value does the source give for ACCGCAAT here?
A: 0.0745

Q: With CCACAGCA as the sequence, how does the “PBM E-score” value read?
A: -0.00404

Q: With ATGGTGTA as the sequence, how does the “PBM E-score” value read?
A: 0.0439

Q: How did the “PBM E-score” value turn out when GGAGCACA was run?
A: -0.0857

Q: Which “PBM E-score” value does the source give for AGCGCTCC here?
A: 0.0343

Q: Which “PBM E-score” value does the source give for AAAATTTG here?
A: 0.114

Q: Which “PBM E-score” value does the source give for GGTGCGTA here?
A: 0.0324

Q: How did the “PBM E-score” value turn out when CATATGCC was run?
A: 0.0684

Q: Which “PBM E-score” value does the source give for GCGGATCA here?
A: -0.0391

Q: How did the “PBM E-score” value turn out when TCTCACCA was run?
A: 0.145

Q: For AGATAACT, which “PBM E-score” value is on record?
A: 0.0371

Q: With ATTTGCCA as the sequence, how does the “PBM E-score” value read?
A: -0.0663

Q: For ACACCTGG, which “PBM E-score” value is on record?
A: -0.0483

Q: GTGTCACA was tested. Which “PBM E-score” value did it give?
A: 0.186

Q: Which “PBM E-score” value does the source give for CCAGGGAA here?
A: -0.272

Q: How did the “PBM E-score” value turn out when TGGGTTAA was run?
A: -0.193

Q: Which “PBM E-score” value does the source give for ACGTTACC here?
A: -0.0381

Q: CGATGGGA was tested. Which “PBM E-score” value did it give?
A: -0.025

Q: For ATGGTTCG, which “PBM E-score” value is on record?
A: -0.225

Q: Which “PBM E-score” value does the source give for GGTCAATA here?
A: -0.0187

Q: With GAAGGTCC as the sequence, how does the “PBM E-score” value read?
A: -0.142

Q: Which “PBM E-score” value does the source give for GCACATCA here?
A: 0.149

Q: How did the “PBM E-score” value turn out when TAGACTAA was run?
A: -0.193

Q: AGGAGATG was tested. Which “PBM E-score” value did it give?
A: -0.101

Q: Which “PBM E-score” value does the source give for CACTGTGG here?
A: -0.175

Q: With ACGTACAG as the sequence, how does the “PBM E-score” value read?
A: -0.0233

Q: ACGACGCG was tested. Which “PBM E-score” value did it give?
A: 0.201

Q: For GCAGCAGC, which “PBM E-score” value is on record?
A: -0.104

Q: How did the “PBM E-score” value turn out when GTTCCAGA was run?
A: -0.078

Q: For ATTCAATC, which “PBM E-score” value is on record?
A: 0.172

Q: How did the “PBM E-score” value turn out when GGGCCAAA was run?
A: -0.111

Q: With CGTTGATA as the sequence, how does the “PBM E-score” value read?
A: 0.0989
